Results: the supplement of paper PMC10849652
The other results are listed elsewhere or left out. Residues, ends and D or L forms follow the SMILES beside them. *: point of attachment. Cbz = O=C(OCc1ccccc1)*

By UniProt entry, the sequences of proteins in these tests, tags left out. Where a name states a change or a piece, a line headed by the entry shows the natural chain unless it says otherwise.
UniProt P29083: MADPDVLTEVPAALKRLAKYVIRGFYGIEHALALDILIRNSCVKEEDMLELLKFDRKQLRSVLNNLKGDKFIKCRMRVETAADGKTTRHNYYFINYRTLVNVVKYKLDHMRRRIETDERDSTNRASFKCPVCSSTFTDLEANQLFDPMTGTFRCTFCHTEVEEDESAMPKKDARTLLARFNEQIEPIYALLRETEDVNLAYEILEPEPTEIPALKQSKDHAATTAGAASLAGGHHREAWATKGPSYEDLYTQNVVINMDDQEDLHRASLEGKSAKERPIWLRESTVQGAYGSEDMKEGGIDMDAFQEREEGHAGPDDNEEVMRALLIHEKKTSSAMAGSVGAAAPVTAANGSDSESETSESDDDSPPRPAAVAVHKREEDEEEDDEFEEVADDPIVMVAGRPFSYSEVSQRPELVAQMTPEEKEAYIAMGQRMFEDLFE
UniProt P42694: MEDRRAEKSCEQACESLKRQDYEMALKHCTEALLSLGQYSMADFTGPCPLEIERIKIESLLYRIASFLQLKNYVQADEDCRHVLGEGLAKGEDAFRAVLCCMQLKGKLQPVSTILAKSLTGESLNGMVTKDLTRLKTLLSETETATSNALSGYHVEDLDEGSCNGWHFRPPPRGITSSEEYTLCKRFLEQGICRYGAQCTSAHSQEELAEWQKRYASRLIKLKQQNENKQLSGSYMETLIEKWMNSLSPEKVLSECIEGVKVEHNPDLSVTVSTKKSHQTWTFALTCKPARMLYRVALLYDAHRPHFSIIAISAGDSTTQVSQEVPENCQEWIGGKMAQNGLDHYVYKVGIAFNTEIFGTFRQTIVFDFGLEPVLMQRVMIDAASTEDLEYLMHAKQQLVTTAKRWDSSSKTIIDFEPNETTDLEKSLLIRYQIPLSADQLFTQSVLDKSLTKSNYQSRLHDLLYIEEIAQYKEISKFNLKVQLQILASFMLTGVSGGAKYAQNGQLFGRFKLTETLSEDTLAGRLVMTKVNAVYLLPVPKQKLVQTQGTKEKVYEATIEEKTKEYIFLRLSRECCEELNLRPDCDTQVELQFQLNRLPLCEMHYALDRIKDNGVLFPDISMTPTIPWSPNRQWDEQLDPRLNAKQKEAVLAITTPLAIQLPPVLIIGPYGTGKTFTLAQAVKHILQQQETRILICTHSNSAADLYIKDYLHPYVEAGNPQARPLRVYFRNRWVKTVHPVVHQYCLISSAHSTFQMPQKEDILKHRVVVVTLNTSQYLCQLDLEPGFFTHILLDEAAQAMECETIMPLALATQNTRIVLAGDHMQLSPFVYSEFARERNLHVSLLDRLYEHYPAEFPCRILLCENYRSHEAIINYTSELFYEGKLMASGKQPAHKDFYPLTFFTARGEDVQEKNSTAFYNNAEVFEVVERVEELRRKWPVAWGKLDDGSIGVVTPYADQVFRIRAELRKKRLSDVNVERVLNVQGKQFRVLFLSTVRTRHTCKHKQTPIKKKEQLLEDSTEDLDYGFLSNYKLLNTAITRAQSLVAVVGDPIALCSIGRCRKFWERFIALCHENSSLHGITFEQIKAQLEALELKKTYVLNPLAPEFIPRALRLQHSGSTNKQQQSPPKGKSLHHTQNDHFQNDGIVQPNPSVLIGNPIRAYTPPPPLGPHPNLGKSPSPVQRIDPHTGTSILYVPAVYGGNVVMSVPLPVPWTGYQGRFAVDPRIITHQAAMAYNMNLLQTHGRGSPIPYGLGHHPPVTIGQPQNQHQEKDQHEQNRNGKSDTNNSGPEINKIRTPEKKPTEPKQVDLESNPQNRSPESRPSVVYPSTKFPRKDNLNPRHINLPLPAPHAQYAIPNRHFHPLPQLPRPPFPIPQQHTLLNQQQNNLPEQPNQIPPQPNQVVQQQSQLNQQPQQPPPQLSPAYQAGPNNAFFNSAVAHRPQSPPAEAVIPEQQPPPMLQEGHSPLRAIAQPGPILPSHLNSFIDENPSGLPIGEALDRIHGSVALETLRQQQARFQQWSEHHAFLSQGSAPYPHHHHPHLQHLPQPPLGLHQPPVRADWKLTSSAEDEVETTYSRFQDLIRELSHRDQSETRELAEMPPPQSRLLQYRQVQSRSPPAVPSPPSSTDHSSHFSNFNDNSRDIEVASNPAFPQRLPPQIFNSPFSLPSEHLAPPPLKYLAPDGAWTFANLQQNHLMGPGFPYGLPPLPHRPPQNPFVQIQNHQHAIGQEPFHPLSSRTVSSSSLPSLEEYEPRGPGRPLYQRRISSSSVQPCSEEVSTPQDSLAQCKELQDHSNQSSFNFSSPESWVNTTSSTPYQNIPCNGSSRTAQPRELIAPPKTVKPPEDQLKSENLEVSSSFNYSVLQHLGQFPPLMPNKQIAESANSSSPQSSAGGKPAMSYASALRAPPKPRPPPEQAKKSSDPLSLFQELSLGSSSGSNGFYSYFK
UniProt P09211: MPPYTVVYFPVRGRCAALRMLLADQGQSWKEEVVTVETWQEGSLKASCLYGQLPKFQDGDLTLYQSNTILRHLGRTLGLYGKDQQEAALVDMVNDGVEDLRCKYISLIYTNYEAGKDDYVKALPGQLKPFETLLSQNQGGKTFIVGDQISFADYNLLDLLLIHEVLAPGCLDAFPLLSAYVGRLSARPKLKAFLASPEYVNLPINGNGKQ
UniProt Q9Y5Q8: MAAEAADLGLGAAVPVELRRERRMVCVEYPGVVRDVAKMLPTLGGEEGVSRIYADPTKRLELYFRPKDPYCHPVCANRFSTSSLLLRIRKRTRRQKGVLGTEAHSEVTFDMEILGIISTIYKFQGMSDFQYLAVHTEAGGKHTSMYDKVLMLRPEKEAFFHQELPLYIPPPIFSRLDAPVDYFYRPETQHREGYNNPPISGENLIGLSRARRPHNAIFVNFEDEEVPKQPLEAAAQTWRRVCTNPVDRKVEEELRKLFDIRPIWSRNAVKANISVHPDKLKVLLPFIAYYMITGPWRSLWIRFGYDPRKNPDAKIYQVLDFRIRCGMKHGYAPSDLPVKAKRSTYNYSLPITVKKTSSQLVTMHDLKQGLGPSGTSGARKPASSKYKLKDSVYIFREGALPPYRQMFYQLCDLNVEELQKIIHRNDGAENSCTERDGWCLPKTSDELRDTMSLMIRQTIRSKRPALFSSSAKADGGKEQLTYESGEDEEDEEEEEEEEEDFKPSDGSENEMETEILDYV
UniProt Q969F1: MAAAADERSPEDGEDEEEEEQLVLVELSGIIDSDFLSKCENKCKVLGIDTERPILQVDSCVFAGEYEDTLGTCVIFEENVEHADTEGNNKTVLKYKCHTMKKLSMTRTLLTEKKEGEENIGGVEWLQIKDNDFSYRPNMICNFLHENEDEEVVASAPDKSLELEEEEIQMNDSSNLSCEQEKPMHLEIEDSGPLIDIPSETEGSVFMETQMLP
UniProt P06865: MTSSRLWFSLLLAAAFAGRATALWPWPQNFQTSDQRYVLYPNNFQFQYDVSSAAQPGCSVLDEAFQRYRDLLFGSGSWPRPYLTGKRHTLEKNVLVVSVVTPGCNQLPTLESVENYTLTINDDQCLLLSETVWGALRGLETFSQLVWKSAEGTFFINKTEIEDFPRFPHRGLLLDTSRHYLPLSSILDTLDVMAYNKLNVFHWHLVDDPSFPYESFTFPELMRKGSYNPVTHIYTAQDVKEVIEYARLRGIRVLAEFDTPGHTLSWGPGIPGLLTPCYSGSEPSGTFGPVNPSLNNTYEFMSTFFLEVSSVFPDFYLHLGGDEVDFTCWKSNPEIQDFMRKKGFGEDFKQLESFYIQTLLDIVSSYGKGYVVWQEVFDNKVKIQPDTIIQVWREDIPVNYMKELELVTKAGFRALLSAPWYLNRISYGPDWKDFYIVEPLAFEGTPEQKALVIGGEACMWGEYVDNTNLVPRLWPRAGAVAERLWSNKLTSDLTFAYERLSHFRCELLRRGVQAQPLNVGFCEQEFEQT
UniProt P00390: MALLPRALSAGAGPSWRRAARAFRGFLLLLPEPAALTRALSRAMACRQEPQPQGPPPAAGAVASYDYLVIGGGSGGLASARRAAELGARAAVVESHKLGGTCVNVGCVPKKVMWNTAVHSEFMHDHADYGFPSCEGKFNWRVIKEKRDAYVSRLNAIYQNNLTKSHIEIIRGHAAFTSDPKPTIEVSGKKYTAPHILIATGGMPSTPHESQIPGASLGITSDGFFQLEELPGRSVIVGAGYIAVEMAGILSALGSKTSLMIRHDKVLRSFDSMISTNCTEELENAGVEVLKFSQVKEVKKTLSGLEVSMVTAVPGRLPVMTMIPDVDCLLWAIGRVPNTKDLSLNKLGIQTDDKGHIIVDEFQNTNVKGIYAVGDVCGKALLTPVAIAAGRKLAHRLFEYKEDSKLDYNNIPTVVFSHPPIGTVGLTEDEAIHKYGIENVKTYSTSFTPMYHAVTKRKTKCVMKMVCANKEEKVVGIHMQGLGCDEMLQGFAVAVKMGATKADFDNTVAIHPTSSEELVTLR
UniProt P02008: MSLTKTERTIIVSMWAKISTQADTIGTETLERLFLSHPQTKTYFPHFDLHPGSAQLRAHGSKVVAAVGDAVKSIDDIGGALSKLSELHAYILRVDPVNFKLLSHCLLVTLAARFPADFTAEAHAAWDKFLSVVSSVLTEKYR

Key:
Experiment in all cases: log2 fold change, soluble protein after heating vs DMSO (PISA); higher = thermal stabilisation; K562 cells, 10 uM, 30 min; active = over 0.2 and 3.5 SD of the protein, either way, in both replicates (recomputed)
[1] = compound: C1COCCN1CCN2C3=CC=CC=C3N=C2NC(=O)C4=CC(=CC=C4)[N+](=O)[O-] [IRAK-1-4 Inhibitor I]
Procedure, shortened: (§1)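 Thermal stability values are relative to control samples and come from duplicates. They are expressed as log2 fold changes. For measurement, K562 cells (2×10^6 cells/mL) received 10 μM compound for 30 min, and aliquots were heated for 3 min over 48°C-58°C, pooled, and extracted at 4°C in PBS with 0.5% NP-40. Soluble protein, the supernatant after 21,000xg for 90 min, was quantified by TMTpro 16plex LC-MS/MS with equalised channel sums.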

[2] = compound: C=CC(=O)N1CCC[C@@H](n2nc(-c3ccc(Oc4ccccc4)cc3)c3c(N)ncnc32)C1 [ibrutinib]
Procedure, shortened: as §1

[3] = compound: CC(=O)c1cnc2ccc(-c3cc(Cl)c(O)c(Cl)c3)nc2c1N[C@H]1CC[C@H](CN(C)C)CC1
Procedure, shortened: as §1

[4] = compound: CC(C)(C)Cn1c(N)nc2ccc(-c3[nH]c(C(C)(C)C)nc3-c3ccc(F)cc3)nc21 [ralimetinib]
Procedure, shortened: as §1

[5] = compound: CC(C)(O)CC(=O)NCCn1ccc2ncnc(Nc3ccc(Oc4cccc(C(F)(F)F)c4)c(Cl)c3)c21
Procedure, shortened: as §1

[6] = compound: CC(C)C1=C2N=C(C=C(N2N=C1)NCC3=CC=CC=C3)NCCCCCCN
Procedure, shortened: as §1

[7] = compound: CC(C)C[C@@H](C=O)NC(=O)[C@H](CC(C)C)NC(=O)[C@H](CC(C)C)NC(=O)OCc1ccccc1
Procedure, shortened: as §1

[8] = compound: CC(C)N(C[C@H]1O[C@@H](n2cnc3c(N)ncnc32)[C@H](O)[C@@H]1O)[C@H]1C[C@@H](CCc2nc3cc(C(C)(C)C)ccc3[nH]2)C1 [pinometostat]
Procedure, shortened: as §1

[9] = compound: CC1=C(C2=C(C=C1)C(=O)C3=CC=CC=C3N2CCCN)C
Procedure, shortened: as §1

[10] = compound: CC1=C(C=C(C=C1)NC(=O)C2=CC(=CC=C2)C(C)(C)C#N)NC3=CC4=C(C=C3)N=CN(C4=O)C
Procedure, shortened: as §1

[11] = compound: CC1=C(C=C(C=C1)NC(=O)C2=CC(=CC=C2)N(C)C)NC(=O)C3=CC=C(C=C3)O
Procedure, shortened: as §1

[12] = compound: CC1=CC=C(C=C1)SC2=C3C=C(SC3=CN=C2)C(=O)N
Procedure, shortened: as §1

[13] = compound: CC1=NC(=CC=C1)C2=C(N=C(N2)C(C)(C)C)C3=CC4=NC=CN=C4C=C3
Procedure, shortened: as §1

[14] = compound: CCCCN(Cc1ccc(C(=O)NO)cc1)C(=O)Nc1ccccc1 [Nexturastat A]
Procedure, shortened: as §1

[15] = compound: CCCS(=O)(=O)Nc1ccc(F)c(C(=O)c2c[nH]c3ncc(-c4ccc(Cl)cc4)cc23)c1F [vemurafenib]
Procedure, shortened: as §1

[16] = compound: CCCS(=O)(=O)Nc1ccc(F)c(C(=O)c2c[nH]c3ncc(Cl)cc23)c1F
Procedure, shortened: as §1

[17] = compound: CCCc1cc(C)[nH]c(=O)c1CNC(=O)c1cc(-c2ccnc(N3CCN(C)CC3)c2)cc2c1cnn2C(C)C
Procedure, shortened: as §1

[18] = compound: CCN(CC)Cc1ccc2cc(COC(=O)Nc3ccc(C(=O)NO)cc3)ccc2c1 [givinostat]
Procedure, shortened: as §1

[19] = compound: CCN(CCCOc1ccc2c(Nc3cc(CC(=O)Nc4cccc(F)c4)[nH]n3)ncnc2c1)CCOP(=O)(O)O [barasertib]
Procedure, shortened: as §1

[20] = compound: CC1=C(C(CC(=O)N1)C2=CC=C(C=C2)C(F)(F)F)C(=O)NC3=C(C=C4C(=C3)C=NN4)F
Procedure, shortened: as §1

Target	log2 fold change [1]	log2 fold change [2]	log2 fold change [3]	log2 fold change [4]	log2 fold change [5]	log2 fold change [6]	log2 fold change [7]	log2 fold change [8]	log2 fold change [9]	log2 fold change [10]	log2 fold change [11]	log2 fold change [12]	log2 fold change [13]	log2 fold change [14]	log2 fold change [15]	log2 fold change [16]	log2 fold change [17]	log2 fold change [18]	log2 fold change [19]	log2 fold change [20]
GTF2E1 (UniProt P29083)	inactive: -0.048	inactive: -0.06	inactive: -0.051	inactive: -0.018	inactive: -0.178	inactive: -0.147	inactive: 0.016	inactive: -0.046	inactive: -0.007	inactive: -0.005	inactive: -0.057	inactive: 0.011	inactive: 0.115	inactive: 0.024	inactive: 0.05	inactive: 0.082	inactive: -0.006	inactive: 0.091	inactive: 0.166	
HELZ (UniProt P42694)	inactive: 0.035	inactive: 0.018	inactive: -0.285	inactive: 0.004		inactive: 0.004	inactive: 0.049	inactive: -0.181		inactive: 0.056	inactive: -0.064	inactive: 0.02	inactive: -0.12		inactive: -0.404	inactive: 0.087	inactive: -0.032	inactive: 0.093	inactive: 0.052	inactive: 0.035
GSTP1 (UniProt P09211)	inactive: 0.12	inactive: -0.038	inactive: -0.074	inactive: -0.021	inactive: -0.015	inactive: 0.016	inactive: -0.023	inactive: -0.026	inactive: 0.03	inactive: 0.006	inactive: -0.003	inactive: 0.008	inactive: 0.008	inactive: -0.108	inactive: 0.022	inactive: -0.006	inactive: -0.1	inactive: -0.019	inactive: 0.023	
HERC2 (UniProt O95714)	inactive: -0.056	inactive: 0.187	inactive: -0.076	inactive: 0.055	inactive: -0.024		inactive: 0.112	inactive: 0.236	inactive: -0.163	inactive: 0.057	inactive: 0.005	inactive: 0.063	inactive: -0.179	inactive: 0.182	inactive: -0.185	inactive: -0.162	inactive: -0.126		inactive: -0.36	inactive: 0.057
GTF3C5 isoform 3 (UniProt Q9Y5Q8)	inactive: -0.028	inactive: 0.046	inactive: 0.047	inactive: 0.01	inactive: -0.025	inactive: -0.293	inactive: 0.083	inactive: 0.109	inactive: -0.171	inactive: 0.058	inactive: -0.022	inactive: 0.088	inactive: 0.007	inactive: 0.136	inactive: 0.101	inactive: 0.056	inactive: 0.061	inactive: 0.045	inactive: 0.08	
GTF3C6 (UniProt Q969F1)	inactive: 0.054	inactive: -0.013			inactive: -0.017			inactive: 0.067	inactive: -0.102	inactive: -0.041		inactive: -0.076	inactive: -0.051	inactive: 0.103	inactive: -0.1	inactive: 0.038	inactive: 0.036		inactive: 0.065	inactive: 0.111
HEXA (UniProt P06865)	inactive: 0.013	inactive: 0.004	inactive: 0.018	inactive: -0.062	inactive: 0.024	inactive: -0.179	inactive: 0.032	inactive: -0.043	inactive: -0.05	inactive: -0.046	inactive: 0.022	inactive: -0.019	inactive: 0.004	inactive: -0.035	inactive: -0.006	inactive: -0.023	inactive: -0.023	inactive: -0.018	inactive: -0.001	
GSR (UniProt P00390)	inactive: 0.037	inactive: -0.005	inactive: -0.011	inactive: -0.021	inactive: -0.015	inactive: 0.082	inactive: 0.023	inactive: -0.05	inactive: -0.003	inactive: -0.011	inactive: 0.022	inactive: 0.016	inactive: 0.007	inactive: -0.073	inactive: -0.027	inactive: 0.02	inactive: -0.026	active: -0.253	inactive: -0.03	
HBZ (UniProt P02008)	inactive: 0.025	inactive: -0.001	inactive: -0.005	inactive: -0.052	inactive: -0.042	inactive: 0.102	inactive: -0.019	inactive: -0.017	inactive: 0.088	inactive: 0.01	inactive: -0.074	inactive: 0.025	inactive: 0.042	inactive: -0.013	inactive: -0.028	inactive: -0.006	inactive: -0.008	inactive: -0.052	inactive: 0.044	
